Results published in patent US20230210832A1, “METHODS FOR TREATING ALZHEIMER'S DISEASE” (priority 2020, published 2023).
At least one compound was matched to its structure with a doubt left.

Legend:
[1] = system: Tg2576 AD model mice and WT (B6/SJL) littermates; assay: Open field test; conditions: 1-month treatment; for time spent in the centre / exploration of the open field: WT (B6/SJL) mice, vs pre-treatment and vehicle-treated WT
[2] = system: Tg2576 AD model mice and WT (B6/SJL) littermates; assay: Radial arm water maze (RAWM); type: in vivo, mouse; conditions: 1-month treatment; for latency time and number of errors on the fifth test day, vs pre-treatment and vehicle-treated Tg2576 mice / latency time and number of errors, first test day vs fifth test day: drug-treated Tg2576 mice; for performance on the first test day versus the fifth test day: drug-treated WT mice
[3] = system: Tg2576 AD model mice and WT (B6/SJL) littermates; assay: Contextual fear conditioning; type: in vivo, mouse; conditions: 1-month treatment; for freezing percentage, comparison with pre-treatment Tg2576 mice / freezing percentage, comparison with vehicle-treated Tg2576 mice: drug-treated Tg2576 mice
Experimental: Contextual Fear Conditioning: The apparatus consisted of a transparent chamber inside an enclosure with an opening in the ceiling to allow video recordings. The chamber consisted of a steel grid floor connected to a shock generator scrambler. The test encompassed two sessions: conditioning and a context test. On the conditioning day, the mice were individually placed in the chamber and allowed to explore freely for 5 minutes during which, at the 180th second, they received a foot shock of 0.50-0.80 mA for 3 seconds through the bars of the floor. 24 hours after conditioning, the mice were individually placed back in the chamber for 4 minutes, this time with no noxious stimuli. The mice were monitored for movement and freezing behaviour was recorded using computer software (Limelight, ActiMetrics, Wilmette, Ill., USA). Exclusion criteria were set for freezing events less than 2 seconds. This test was used to determine associative working memory. We explored the animal's ability to associate an environment with a noxious event that it experienced there. […] Freezing is a species-specific response to fear, which is defined as “the absence of movement except for respiration.” This may last for seconds to minutes depending on the strength of the aversive stimulus and whether the subject is able to recall the shock.

[4] = system: Tg2576 mice and WT littermates; assay: Semi-quantitative analysis of tight junction morphology (occludin); type: in vivo, mouse; conditions: for percentage of TJP disruption: WT mice, drug or vehicle treatment; for percentage of tight junction protein (TJP) disruption / occludin expression pattern: drug-treated Tg2576 mice, 1-month treatment
[5] = system: Tg2576 AD model mice and WT (B6/SJL) littermates; assay: Spontaneous alternation (Y-maze); type: in vivo, mouse; conditions: 1-month treatment; for percentage of alternation, change on drug treatment: WT mice, vs pre-treatment and vehicle-treated WT; for percentage of alternation, comparison with pre-treatment Tg2576 mice / percentage of alternation, comparison with vehicle-treated Tg2576 mice: drug-treated Tg2576 mice
Experimental: Spontaneous alternation (Y-maze): The test for novelty exploration using spatial and working memory was conducted using a symmetrical Y-maze with a grey steel bottom plate and grey Perspex® walls (Stoelting Co, Wood Dale, Ill.). Each arm of the Y-maze was 35 cm long, 5 cm wide, and 10 cm high, and the wall at the end of each arm was identified by a different colour: white, blue or red. The spatial acquisition phase comprised a one-day trial with the mice tracked while moving freely through the three arms of the Y maze during an 8-minute session. The movements were tracked by a computer tracking system (ANY-maze, Stoelting). The performance was gauged by the percentage of alternations that was calculated as the total number of alternations×100/(total number of arm entries−2). Alternation was defined as successive entries into the three arms on overlapping triplet sets. A high percentage of alternation was indicative of sustained cognition, as the animals must remember which arm was entered last to avoid re-entering it.

[6] = system: Tg2576 mice and WT littermates; assay: Albumin immunostaining of brain sections (BBB leakage); type: in vivo, mouse; conditions: drug-treated vs vehicle-treated Tg2576 mice
Tg2576 mouse brain [7] = assay: Immunofluorescence analysis of brain sections (cortex and hippocampus) of treated mice; conditions: drug-treated vs vehicle-treated Tg2576 mice
Tg2576 mouse brain [8] = assay: Semi-quantitative western blotting of brain homogenates of treated mice; type: in vivo; conditions: drug-treated vs vehicle-treated Tg2576 mice, 1-month treatment
[9] = system: Tg2576 mice and WT littermates; assay: Blood brain barrier permeability assay (Evans Blue); type: in vivo, mouse; conditions: drug-treated vs vehicle-treated Tg2576 mice

Row | SMILES | time spent in the centre / exploration of the open field [1] | latency time and number of errors on the fifth test day, drug-treated WT vs drug-treated Tg2576 mice [2] | latency time and number of errors on the fifth test day, vs pre-treatment and vehicle-treated Tg2576 mice [2] | latency time and number of errors, first test day vs fifth test day [2] | performance on the first test day versus the fifth test day [2] | freezing percentage, comparison with pre-treatment Tg2576 mice [3] | freezing percentage, comparison with vehicle-treated Tg2576 mice [3] | percentage of TJP disruption [4] | percentage of tight junction protein (TJP) disruption / occludin expression pattern [4] | percentage of alternation, change on drug treatment [5] | percentage of alternation, comparison with pre-treatment Tg2576 mice [5] | percentage of alternation, comparison with vehicle-treated Tg2576 mice [5] | also measured
1 | CNC(=O)c1ccccc1Sc1ccc2c(/C=C/c3ccccn3)n[nH]c2c1 [Axitinib] | results were similar | No significant difference | significant difference | significant difference | Significant differences | significant difference | significant difference | low percentage of disruption | lower percentage of the tight junction disruption, similar to the WT | no significant change | significantly more alteration | significantly more alteration | exploration of the field (distance travelled, entries into the centre) ([1]; Tg2576 mice, vs pre-treatment and vehicle-treated Tg2576): explored the field to a lesser extent
2 | CCN(CC)CCNC(=O)c1c(C)[nH]c(/C=C2\C(=O)Nc3ccc(F)cc32)c1C [Sunitinib] | spent the majority of the time confined to the peripheral region of the field | No significant difference | significant difference | significant difference | Significant differences | not significantly higher | significantly greater | low percentage of disruption | TJP expression pattern similar to that in the WT mice | no significant change | not significantly different | significantly higher alternation | freezing percentage, comparison with vehicle-treated WT mice ([3]; drug-treated WT mice): significant increase in freezing percentage; albumin (and Evans blue) in the CNS, micrographs of brain sections [6]: much less albumin crosses into the CNS; CD105 (sprouting vessel marker) staining, immunofluorescence (Tg2576 mouse brain [7]): hyper-vascular state was not apparent; amyloid staining, immunofluorescence (Tg2576 mouse brain [7]): amyloid is significantly less abundant; occludin expression, immunofluorescence (Tg2576 mouse brain [7]): Lower expression of the tight junction protein, occludin, indicative of BBB impairment, can be seen in the vehicle-treated Tg2576 as compared to B6/SJL or Sunitinib-treated Tg2576 mice; APP protein expression, western blot (Tg2576 mouse brain [8]): reduction in overall APP protein expression; Aβ expression, western blot (Tg2576 mouse brain [8]): Significantly lower Aβ expression; expression of CD105 (neoangiogenic marker), western blot (Tg2576 mouse brain [8]): significant decrease; expression of tight junction protein ZO1, western blot (Tg2576 mouse brain [8]): Higher expression of ZO1; Evans Blue uptake in the brain (absorbance at 620 nm, optical density/unit mass of brain) [9]: Lower uptake of Evans Blue into the CNS
